Experimental data published in US20140186329A1, “POLYPHENOL ANALOGS TO TREAT ISCHEMIA” (priority 2011, published 2014).
Some results were stated once for a whole list of compounds, not compound by compound. Some ranges recur; such a range may be that of the whole group of compounds.

System: HT22 cells
Assay: In vitro ischemia assay (HT22 cell IAA assay, MTT)
Format: cell-based, mouse
Settings: for increase survival in the HT22 cell bioassay: criterion met; for fold enhancement of neuroprotective activity relative to CMS-027: in vitro ischemia, HT22/IAA
Description: Cell viability was determined by a modified version of 3-(4,5-dimethylthiazol-2-yl)-2,5-diphenyl tetrazolium bromide (MTT) assay based on the standard procedure (Maher, et al., Brain Research. (2007), supra). Cells were seeded onto 96-well microtiter plates at a density of 5×10^3 cells per well. For the in vitro ischemia assay, the next day, the medium was replaced with DMEM supplemented with 7.5% DFCS and the cells were treated with 20 μM iodoacetic acid (IAA) alone or in the presence of the different derivatives. After 2 hr the medium in each well was aspirated and replaced with fresh medium without IAA but containing the derivatives. 20 hr later, the medium in each well was aspirated and replaced with fresh medium containing 2.5 μg/ml MTT. After 4 hr of incubation at 37° C., the cells were solubilized with 100 μl of a solution containing 50% dimethylformamide and 20% SDS (pH 4.7). The absorbance at 570 nm was measured on the following day with a microplate reader (Molecular Devices). Results were confirmed by visual inspection of the wells. Controls included compound alone to test for toxicity and compound with no cells to test for interference with the assay chemistry.
For a primary screen, an in vitro ischemia model in combination with the HT22 nerve cell line (Maher, et al., Brain Research. (2007) 1173, 117-125) was chosen. […] To induce ischemia in the HT22 cells we used iodoacetic acid (IAA), a well-known, irreversible inhibitor of the glycolytic enzyme glyceraldehyde 3-phosphate dehydrogenase (G3PDH) (Winkler, et al., Exp. Eye Res. (2003) 76, 715-723). IAA has been used in a number of other studies to induce ischemia in nerve cells (Reshef, et al., Neurosci. Lett. (1997) 238, 37-40; Sperling, et al., Neursci. Lett. (2003) 351, 137-140; Rego, et al., Neurochem. Res. (1999) 24, 351-358; Sigalov, et al., J. Mol. Neurosci. (2000) 15, 147-154; and Reiner, et al., Neurosci. Lett. (1990) 119, 175-178), including several recent screens for neuroprotective molecules (Biraboneye, et al., J. Med. Chem. (2009) 52 (14), 4358-4369; Biraboneye, et al., Chem. Med. Chem. (2010) 5 (1), 79-85). The changes following IAA treatment of neural cells are very similar to those seen in animal models of ischemic stroke (Lipton, et al., Physiol. Rev. (1999) 79, 1431-1568) and include alterations in membrane potential (Reiner, et al., Neurosci. Lett. (1990) 119, 175-178), breakdown of phospholipids (Taylor, et al., J. Pharmacol. Exp. Ther. (1996) 276, 1224-1231), loss of ATP (Winkler, et al., Exp. Eye Res. (2003) 76, 715-723; Sperling, et al., Neursci. Lett. (2003) 351, 137-140) and an increase in reactive oxygen species (ROS) (Taylor, et al., J. Pharmacol. Exp. Ther. (1996), supra; and Sperling, et al., Neursci. Lett. (2003) 351, 137-140).
Tables 1-3 show half maximal effective concentrations (EC50s) for protection in the in vitro ischemia assay were determined by exposing HT22 cells to different doses of each derivative in the presence of 20 μM IAA for 2 hr (HT22/IAA). Cell viability was determined after 24 hr by the MTT assay. The ability to maintain GSH (GSH) was determined by treating HT22 cells with different doses of each derivative (1-10 μM) in the presence of 5 mM glutamate. After 24 hr cell extracts were prepared and analyzed for total GSH. Fisetin (10 μM) was used as a positive control. The ability to induce PC12 cell differentiation (PC 12 diff' n) was determined by treating PC12 cells in N2 medium with different doses of each derivative (1-10 μM) for 24 hr. Differentiation was assessed by visual inspection with Fisetin (10 μM) as a positive control. Anti-inflammatory activity (microglia) was assessed in N9 microglial cells treated with bacterial lipopolysaccharide alone or in the presence different doses of each derivative (1-10 μM) for 24 hr. Fisetin was used as a positive control. TEAC values, a measure of direct antioxidant activity, were determined using the ABTS decolorization assay. […]

| SMILES | increase survival in the HT22 cell bioassay | fold enhancement of neuroprotective activity relative to CMS-027 |
| --- | --- | --- |
| CC(C)c1ccc(O)c(C(=O)/C=C/c2ccc(O)c(O)c2)c1 [CMS-129, (E)-3-(3,4-dihydroxyphenyl)-1-(2-hydroxy-5-isopropylphenyl)prop-2-en-1-one] | > 80% |  |
| COc1cc(-c2oc3c(ccc4ccccc43)c(=O)c2O)ccc1N1CCCC1 [CMS-139, 3-hydroxy-2-(3-methoxy-4-(pyrrolidin-1-yl)phenyl)-4H-benzo[h]chromen-4-one] | > 80% |  |
| Oc1ccc(-c2cc(OC3CCCC3)c3ccccc3n2)cc1O [CMS-121, 4-cyclopentyloxy-2-(3,4-dihydroxyphenyl) quinoline] | > 80% |  |
| CN(C)c1ccc(-c2oc3c(ccc4ccccc43)c(=O)c2O)cc1 [CMS-118, 2-(4-(dimethylamino)phenyl)-3-hydroxy-4H-benzo[h]chromen-4-one] | > 80% |  |
| Cc1cc2oc(-c3ccc(N(C)C)cc3)c(O)c(=O)c2cc1C [CMS-117, 2-(4-(dimethylamino)phenyl)-3-hydroxy-6,7-dimethyl-4H-chromen-4-one] | > 80% |  |
| O=c1c(O)c(-c2ccc(N3CCCC3)c(O)c2)oc2c1ccc1ccccc12 [CMS-140, 3-hydroxy-2-(3-hydroxy-4-(pyrrolidin-1-yl)phenyl)-4H-benzo[h]chromen-4-one] | > 80% |  |
| COc1cc(-c2oc3cc(C)c(C)cc3c(=O)c2O)ccc1O [CMS-069, 3-hydroxy-2-(4-hydroxy-3-methoxyphenyl)-6,7-dimethyl-4H-chromen-4-one] |  | 10-20 fold |
| O=c1cc(-c2ccc(O)c(O)c2)oc2c1ccc1ccccc12 [CMS-02P, reference compound] | > 80% |  |
| O=C(/C=C/c1ccc(O)c(O)c1)c1ccc2ccccc2c1O [CMS-034, (E)-3-(3,4-dihydroxyphenyl)-1-(1-hydroxynaphthalen-2-yl)prop-2-en-1-one] | > 80% |  |
| COc1ccc(-c2oc3cc(C)c(C)cc3c(=O)c2O)cc1O [CMS-092, 3-hydroxy-2-(3-hydroxy-4-methoxyphenyl)-6,7-dimethyl-4H-chromen-4-one] | > 80% | 10-20 fold |
| COc1cc(-c2cc(=O)c3cc(C)c(C)cc3o2)ccc1O [CMS-064, 2-(4-hydroxy-3-methoxyphenyl)-6,7-dimethyl-4H-chromen-4-one] |  | 10-20 fold |
